Laboratory results taken from PubChem BioAssay AID445 (National Center for Advancing Translational Sciences (NCATS), 2006).
The list shows a part of the results. These are further read-outs of the screen, such as a control signal, another cell line or another target. No call is given for them. Compounds called inactive in the main read-out are mostly missing here. Words in brackets tell the shape of the fitted curve; partial curves, single points and poor fits give uncertain potencies.

Test: IkB Signaling
Settings: ABC-DLBCL IkBa-CBG/CBR dual luciferase ratio (green luciferase fused to IkBa over red control in OCI-Ly3 lymphoma cells), 4 h
Procedure, shortened: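 In this assay, an IκBα–CBG68 fusion accumulates when IKK-driven degradation is blocked; native CBR normalizes for cell number. OCI-Ly3 cells were treated 4 h with compound and doxycycline, then green and red light read after Chroma-Glo addition.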

[1] = measured here: control luc red channel unless noted

COC(=O)c1c(NC(=O)c2cc3nc(-c4ccc(Br)cc4)cc(C(F)(F)F)n3n2)sc2c1CCCC2
AC50 [1]: 12.6 µM [rising, partial curve]

COc1ccc(NC(=O)Cn2cc(C(=O)C3CCCCC3)c3ccccc32)cc1
AC50 [1]: 0.00794 µM [falling, full curve, poor fit]

CC(C)Oc1ccc(C(=O)N2CC(=O)Nc3ccc(F)cc3C2c2ccc(F)cc2)cc1 (stereo not drawn)
AC50 [1]: 10 µM [falling, partial curve]

CCOc1ccc(CNC(=O)CN2C(=O)C3CCCCN3c3ccc(C(=O)N4CCCC4)cc32)cc1 (stereo not drawn)
AC50 [1]: 10 µM [rising, partial curve]

COc1ccc(Cn2ccc3nc(C)c(C(=O)N4CCN(c5cc(C)ccc5C)CC4)cc3c2=O)cc1
AC50 [1]: 31.6 µM [falling, partial curve, poor fit]

CCc1cccc(C)c1NC(=O)C(CC)n1ncn2c(cc3cc(C)ccc32)c1=O (stereo not drawn)
AC50 [1]: 15.8 µM [falling, partial curve]

COc1ccccc1N1CC(O)=C(c2nc3ccccc3c(=O)[nH]2)C1=N
AC50 [1]: 5.01 µM [falling, partial curve]

Cc1ccc(S(=O)(=O)c2nc(S(=O)(=O)c3ccc(C)cc3)c(NC(C)C)s2)cc1
AC50 [1]: 0.501 µM [falling, single point]

CCOc1ccc(CNC(=O)c2cnc3sc(N4CCCCCC4)nn3c2=O)cc1OC
AC50 [1]: 0.631 µM [rising, partial curve, poor fit]

Cc1cc2n(n1)CCC(=O)N2Cc1ccc(C(=O)Nc2ccc(Br)c(C)c2)cc1
AC50 [1]: 39.8 µM [falling, single point]

COc1ccccc1-n1c(CNc2c(C)cccc2C)nnc1SCC(=O)N1CCOCC1
AC50 [1]: 3.98 µM [falling, partial curve]

COC(=O)c1c(NC(=O)COc2c(C)ccc(C)c2C)sc2c1CCC(C)C2 (stereo not drawn)
AC50 [1]: 25.1 µM [falling, single point]

CC1=C(C(=O)Nc2cccnc2)C(c2ccc(Cl)cc2)n2nc(SCc3ccccc3)nc2N1 (stereo not drawn)
AC50 [1]: 0.794 µM [falling, full curve, poor fit]

O=C(CC1N=C2c3ccccc3N=C(SCc3ccccc3Cl)N2C1=O)NCc1cccs1 (stereo not drawn)
AC50 [1]: 31.6 µM [falling, partial curve]

O=C(c1nc(-c2ccccc2)n(-c2ccccc2)n1)N1CCN(S(=O)(=O)c2ccccc2)CC1
AC50 [1]: 25.1 µM [falling, single point]

COc1ccc(C(=O)NNc2ncnc3c2cnn3-c2ccccc2)cc1
AC50 [1]: 10 µM [falling, partial curve]

CCOc1ccc(NC(=O)Cc2ccc(-n3c(C)nc4cccnc43)cc2)cc1
AC50 [1]: 6.31 µM [falling, single point]

CCOC(=O)C1CCCN(Cc2cn3c(-c4ccc(Br)cc4)nnc3s2)C1 (stereo not drawn)
AC50 [1]: 39.8 µM [rising, single point]

CCc1nc(Nc2ccc(N3CCN(C(C)=O)CC3)cc2)c2oc3ccccc3c2n1
AC50 [1]: 7.94 µM [falling, full curve]

O=C(c1ccco1)N1CCC(c2ccccc2)C1 (stereo not drawn)
AC50 [1]: 7.94 µM [falling, partial curve]

CCN(CC)CCNC(=O)c1[nH]c2ccccc2c1Sc1ccc(Cl)cc1
AC50 [1]: 15.8 µM [falling, single point]

O=C(Nc1cc(Cl)ccc1Cl)c1cc(S(=O)(=O)N2CCCc3ccccc32)ccc1F
AC50 [1]: 7.94 µM [falling, partial curve]

CN(C(=O)c1ccc2c(c1)N(Cc1ccccc1F)C(=O)c1ccccc1S2(=O)=O)C1CCCCC1
AC50 [1]: 20 µM [falling, single point]

Cc1cc(C)c(/C=C/c2onc(C)c2S(=O)(=O)N2CCC(C(=O)Nc3ccc(Cl)cc3C)CC2)c(C)c1
AC50 [1]: 20 µM [falling, partial curve]

Cc1ccccc1NC(=O)c1c(NC(=O)C(F)(F)F)sc2c1CCCCC2
AC50 [1]: 0.631 µM [falling, full curve]

N=c1n(CCO)c2ccccc2n1CCOc1ccc(Cl)cc1Cl
AC50 (measured here: IkB-luc green channel): 15.8 µM [falling, partial curve]
AC50 (measured here: control luc red channel): 10 µM [falling, partial curve]

COc1ccc(-c2nnc(Nc3nc4c(OC)cccc4s3)o2)cc1
AC50 [1]: 6.31 µM [falling, partial curve]

CCOC(=O)c1c(C)c(C(=O)NCc2ccc(Cl)cc2)c(C)n1CC
AC50 [1]: 0.0398 µM [falling, full curve, poor fit]

CC(C)c1ccccc1Oc1c(C(F)(F)F)oc2c(CN3CCN(C)CC3)c(O)ccc2c1=O
AC50 [1]: 31.6 µM [falling, single point]

Cn1c(-c2ccc(S(=O)(=O)N3CCCC3)cc2)csc1=Nc1ccc(Cl)c(Cl)c1
AC50 [1]: 5.01 µM [falling, partial curve]

CCOc1ccccc1Nc1sc(C(=O)c2ccc(Cl)cc2)c(N)c1C(=O)NCCc1ccccc1
AC50 [1]: 0.2 µM [falling, full curve, poor fit]

Fc1ccc(N2CCN(C(c3cccs3)c3nnnn3CCc3ccccc3)CC2)cc1 (stereo not drawn)
AC50 [1]: 12.6 µM [falling, partial curve]

COc1ccc(NCc2cc3ccc(OC)cc3n(CC(=O)Nc3cccc(OC)c3)c2=O)cc1
AC50 [1]: 39.8 µM [falling, single point]

OC(COc1ccc2ccccc2c1)CN1CCCC1 (stereo not drawn)
AC50 [1]: 2 µM [falling, full curve]

CCc1cccc(NC(=O)Cn2c(=O)n(CCC(=O)NCC3CCCO3)c(=O)c3cc(OC)c(OC)cc32)c1 (stereo not drawn)
AC50 [1]: 12.6 µM [falling, partial curve]

Cn1c(/N=C/c2cc(Cl)ccc2O)nc2ccccc21
AC50 [1]: 5.01 µM [falling, partial curve]

Cc1ccc(-c2nc3ncccc3o2)cc1NC(=O)c1ccccc1Br
AC50 [1]: 3.98 µM [rising, partial curve]

Cc1c(C(=O)Nc2ccc(F)cc2)oc2ccc(S(=O)(=O)N3CCC4(CC3)OCCO4)cc12
AC50 [1]: 3.98 µM [falling, full curve]

CCCCN(CCCNC(=O)CN1C(=O)COc2ccccc21)c1ccccc1
AC50 [1]: 15.8 µM [falling, partial curve]

Cc1ccc(CSC2=Nc3ccccc3C3=NC(CC(=O)NCc4cccs4)C(=O)N23)cc1 (stereo not drawn)
AC50 [1]: 12.6 µM [falling, partial curve]

CC1CC(=O)N(CC(=O)Nc2ccc(F)cc2F)c2ccccc2S1 (stereo not drawn)
AC50 [1]: 25.1 µM [falling, single point]

O=C(CCCn1ccc2cc(S(=O)(=O)N3CCCC3)ccc21)NCc1ccc(Cl)cc1
AC50 [1]: 15.8 µM [falling, partial curve]

COc1ccc(NC(=O)Nc2cccc(-c3cn4cccnc4n3)c2)cc1
AC50 [1]: 15.8 µM [falling, partial curve]

COc1ccc(-c2cc(C(=O)N3CCN(c4ccc(F)cc4)CC3)no2)cc1OC
AC50 [1]: 12.6 µM [falling, partial curve]

COc1ccc(C2CC(=O)c3c([nH]c(C(=O)OC4CCCCCC4)c3C)C2)cc1OC (stereo not drawn)
AC50 [1]: 5.01 µM [falling, single point]

CN(C(=O)c1cccc(C#N)c1)c1nnc(-c2cnccn2)s1
AC50 [1]: 15.8 µM [rising, partial curve]

COc1ccc(-n2nnc(-c3nc(-c4ccccc4C)no3)c2N)cc1Cl
AC50 [1]: 0.0398 µM [rising, full curve]

c1ccc(CC2CCN(c3nnnn3-c3ccccc3)CC2)cc1
AC50 [1]: 39.8 µM [falling, single point]

c1ccc2cc(C3=NCCN3)ncc2c1
AC50 [1]: 25.1 µM [falling, partial curve]

O=c1[nH]c(CSc2ncc(-c3ccc(F)cc3)n2Cc2ccco2)nc2ccccc12
AC50 [1]: 15.8 µM [falling, partial curve]

Cc1cccc(OCC(=O)N(Cc2ccc(C(C)C)cc2)Cc2ccco2)c1C
AC50 [1]: 25.1 µM [falling, single point]

CCN(C(=O)c1nn(-c2ccc(C)cc2)c(=O)c2c1c1ccccc1n2C)c1ccc(F)cc1
AC50 [1]: 10 µM [falling, partial curve]

O=C(NCCc1ccccc1)c1ccc(CSc2nc3ccncc3n2Cc2ccccc2F)cc1
AC50 [1]: 20 µM [falling, partial curve]

Cc1ccc(N2CC(NC(=O)c3ccco3)CC2=O)cc1C (stereo not drawn)
AC50 [1]: 6.31 µM [falling, single point]

CCOC(=O)c1cnc2c(C)cc(Cl)cc2c1NCCc1ccc(OC)c(OC)c1
AC50 [1]: 12.6 µM [falling, partial curve]

CCOC(=O)c1cc(-c2ccc(F)cc2)n(CCC(=O)NCc2ccccc2OC)c1C
AC50 [1]: 39.8 µM [falling, single point]

O=C(c1cccc(F)c1)N1CCC(c2c[nH]c3ccccc23)(c2c[nH]c3ccccc23)CC1
AC50 [1]: 12.6 µM [falling, partial curve]

COc1ccc(C(=O)Nc2nnc(S(=O)(=O)N3CCC(C)CC3)s2)cc1OC
AC50 [1]: 20 µM [falling, single point]

O=C1CC(c2ccco2)CC2=C1C1c3ccccc3C(=O)N1c1ccccc1N2 (stereo not drawn)
AC50 [1]: 7.94 µM [falling, full curve, poor fit]

CCOC(=O)C1=C(CN2CCCCC2)NC(=O)NC1c1ccc(C)cc1 (stereo not drawn)
AC50 [1]: 20 µM [falling, single point]

COc1ccccc1N1CCN(S(=O)(=O)c2ccc3c4c(cccc24)C(=O)N3)CC1
AC50 [1]: 31.6 µM [falling, single point]

O=C(NCC(c1ccc2c(c1)OCO2)N1CCN(c2ccccc2F)CC1)c1ccccc1F (stereo not drawn)
AC50 [1]: 0.0631 µM [falling, full curve, poor fit]
